Legend:
Assay in all cases: minimum inhibitory concentration
meropenem = compound: C[C@@H](O)[C@H]1C(=O)N2C(C(=O)O)=C(S[C@@H]3CN[C@H](C(=O)N(C)C)C3)[C@H](C)[C@H]12 [meropenem]
tigecycline = compound: CN(C)c1cc(NC(=O)CNC(C)(C)C)c(O)c2c1C[C@H]1C[C@H]3[C@H](N(C)C)C(O)=C(C(N)=O)C(=O)[C@@]3(O)C(O)=C1C2=O [tigecycline]
imipenem = compound: C[C@@H](O)[C@H]1C(=O)N2C(C(=O)O)=C(SCCNC=N)C[C@H]12 [imipenem]
fidaxomicin = compound: CCc1c(Cl)c(O)c(Cl)c(O)c1C(=O)O[C@H]1[C@H](O)[C@H](OC)[C@H](OC/C2=C\C=C\C[C@H](O)/C(C)=C/[C@H](CC)[C@@H](O[C@@H]3OC(C)(C)[C@@H](OC(=O)C(C)C)[C@H](O)[C@@H]3O)/C(C)=C/C(C)=C/C[C@@H]([C@@H](C)O)OC2=O)O[C@@H]1C [fidaxomicin]
linezolid = compound: CC(=O)NC[C@H]1CN(c2ccc(N3CCOCC3)c(F)c2)C(=O)O1 [linezolid]
vancomycin = compound: CN[C@H](CC(C)C)C(=O)N[C@H]1C(=O)N[C@@H](CC(N)=O)C(=O)N[C@H]2C(=O)N[C@H]3C(=O)N[C@H](C(=O)N[C@H](C(=O)O)c4cc(O)cc(O)c4-c4cc3ccc4O)[C@H](O)c3ccc(c(Cl)c3)Oc3cc2cc(c3O[C@@H]2O[C@H](CO)[C@@H](O)[C@H](O)[C@H]2O[C@H]2C[C@](C)(N)[C@H](O)[C@H](C)O2)Oc2ccc(cc2Cl)[C@H]1O [vancomycin]
clindamycin = compound: CCC[C@@H]1C[C@@H](C(=O)N[C@@H]([C@H]2O[C@H](SC)[C@H](O)[C@@H](O)[C@H]2O)[C@H](C)Cl)N(C)C1 [clindamycin]
rifampicin = compound: CO[C@H]1/C=C/O[C@@]2(C)Oc3c(C)c(O)c4c(O)c(c(/C=N/N5CCN(C)CC5)c(O)c4c3C2=O)NC(=O)/C(C)=C\C=C\[C@H](C)[C@H](O)[C@@H](C)[C@@H](O)[C@@H](C)[C@H](OC(C)=O)[C@@H]1C [rifampicin]
metronidazole = compound: Cc1ncc([N+](=O)[O-])n1CCO [metronidazole]

Test System	minimum inhibitory concentration (meropenem) [µg/mL]	minimum inhibitory concentration (tigecycline) [µg/mL]	minimum inhibitory concentration (imipenem) [µg/mL]	minimum inhibitory concentration (fidaxomicin) [µg/mL]	minimum inhibitory concentration (linezolid) [µg/mL]	minimum inhibitory concentration (vancomycin) [µg/mL]	minimum inhibitory concentration (clindamycin) [µg/mL]	minimum inhibitory concentration (rifampicin) [µg/mL]	minimum inhibitory concentration (metronidazole) [µg/mL]
Clostridioides difficile PCR ribotype 005 isolate #292 (European region: West, country: France, isolate source: Animal, ribotype: 005)	4	< 0.03	2	0.03	2	0.5	16	< 0.001	0.25
Clostridioides difficile PCR ribotype 005 isolate #293 (European region: West, country: France, isolate source: Animal, ribotype: 005)	4	< 0.03	2	0.03	2	0.5	16	< 0.001	< 0.125
Clostridioides difficile PCR ribotype 005 isolate #294 (European region: South, country: Spain, isolate source: Animal, ribotype: 005)	4	0.06	2	0.03	16	0.5	> 128	< 0.001	< 0.125
Clostridioides difficile PCR ribotype 009 isolate #37 (European region: North, country: UK, isolate source: Human, ribotype: 009)	2	0.06	2	0.06	2	1	1	< 0.001	< 0.125
Clostridioides difficile PCR ribotype 009 isolate #38 (European region: North, country: Sweden, isolate source: Human, ribotype: 009)	2	< 0.03	2	0.015	2	0.5	> 128	< 0.001	< 0.125
Clostridioides difficile PCR ribotype 009 isolate #40 (European region: South, country: Spain, isolate source: Human, ribotype: 009)	4	0.06	4	0.06	2	0.5	1	< 0.001	0.25
Clostridioides difficile PCR ribotype 009 isolate #41 (European region: North, country: UK, isolate source: Human, ribotype: 009)	2	< 0.03	2	0.06	2	1	16	< 0.001	0.25
Clostridioides difficile PCR ribotype 009 isolate #42 (European region: West, country: France, isolate source: Human, ribotype: 009)	4	< 0.03	1	0.03	0.25	0.5	16	< 0.001	< 0.125
Clostridioides difficile PCR ribotype 009 isolate #295 (European region: South, country: Spain, isolate source: Animal, ribotype: 009)	4	0.06	1	0.008	2	0.5	0.25	< 0.001	< 0.125
Clostridioides difficile PCR ribotype 010 isolate #43 (European region: North, country: UK, isolate source: Human, ribotype: 010)	8	< 0.03	4	0.015	2	0.5	> 128	< 0.001	0.25
Clostridioides difficile PCR ribotype 010 isolate #44 (European region: East, country: Romania, isolate source: Human, ribotype: 010)	2	< 0.03	1	0.015	2	1	8	< 0.001	< 0.125
Clostridioides difficile PCR ribotype 010 isolate #45 (European region: North, country: UK, isolate source: Human, ribotype: 010)	2	0.06	2	0.06	8	0.5	> 128	< 0.001	< 0.125
Clostridioides difficile PCR ribotype 010 isolate #47 (European region: North, country: Sweden, isolate source: Human, ribotype: 010)	4	< 0.03	2	0.03	1	0.5	4	< 0.001	0.25
Clostridioides difficile PCR ribotype 010 isolate #48 (European region: East, country: Poland, isolate source: Human, ribotype: 010)	4	0.06	1	0.03	2	0.5	> 128	< 0.001	2
Clostridioides difficile PCR ribotype 010 isolate #49 (European region: West, country: France, isolate source: Human, ribotype: 010)	4	< 0.03	1	0.03	1	0.5	> 128	< 0.001	8
Clostridioides difficile PCR ribotype 010 isolate #50 (European region: West, country: France, isolate source: Human, ribotype: 010)	4	< 0.03	1	0.125	0.5	0.5	> 128	< 0.001	8
Clostridioides difficile PCR ribotype 010 isolate #51 (European region: West, country: France, isolate source: Human, ribotype: 010)	4	< 0.03	1	0.03	2	0.5	> 128	< 0.001	2
Clostridioides difficile PCR ribotype 010 isolate #52 (European region: West, country: France, isolate source: Human, ribotype: 010)	4	< 0.03	1	0.25	2	0.5	16	< 0.001	0.25
Clostridioides difficile PCR ribotype 010 isolate #55 (European region: South, country: Spain, isolate source: Human, ribotype: 010)	4	< 0.03	2	0.06	2	0.5	> 128	< 0.001	8
Clostridioides difficile PCR ribotype 010 isolate #56 (European region: West, country: Belgium, isolate source: Human, ribotype: 010)	2	0.06	2	0.03	8	0.5	> 128	< 0.001	< 0.125
Clostridioides difficile PCR ribotype 010 isolate #296 (European region: South, country: Spain, isolate source: Animal, ribotype: 010)	4	0.06	2	0.03	0.5	0.5	< 0.125	< 0.001	2
Clostridioides difficile PCR ribotype 011 isolate #57 (European region: East, country: Poland, isolate source: Human, ribotype: 011)	2	< 0.03	2	0.008	2	0.5	16	< 0.001	0.25
Clostridioides difficile PCR ribotype 012 isolate #58 (European region: East, country: Poland, isolate source: Human, ribotype: 012)	2	< 0.03	2	0.015	2	0.5	> 128	< 0.001	0.25
Clostridioides difficile PCR ribotype 012 isolate #59 (European region: North, country: UK, isolate source: Human, ribotype: 012)	4	0.06	2	0.06	8	1	> 128	> 32	0.25
Clostridioides difficile PCR ribotype 012 isolate #60 (European region: East, country: Romania, isolate source: Human, ribotype: 012)	8	0.25	4	0.015	2	1	8	> 32	< 0.125
Clostridioides difficile PCR ribotype 012 isolate #61 (European region: South, country: Spain, isolate source: Human, ribotype: 012)	4	< 0.03	4	0.03	2	0.5	> 128	0.002	< 0.125

Already shown: entries from further up.
Test System	minimum inhibitory concentration (meropenem) [µg/mL]	minimum inhibitory concentration (tigecycline) [µg/mL]	minimum inhibitory concentration (imipenem) [µg/mL]	minimum inhibitory concentration (fidaxomicin) [µg/mL]	minimum inhibitory concentration (linezolid) [µg/mL]	minimum inhibitory concentration (vancomycin) [µg/mL]	minimum inhibitory concentration (clindamycin) [µg/mL]	minimum inhibitory concentration (rifampicin) [µg/mL]	minimum inhibitory concentration (metronidazole) [µg/mL]
Clostridioides difficile PCR ribotype 005 isolate #294 (European region: South, country: Spain, isolate source: Animal, ribotype: 005)	4	0.06	2	0.03	16	0.5	> 128	< 0.001	< 0.125
Clostridioides difficile PCR ribotype 009 isolate #37 (European region: North, country: UK, isolate source: Human, ribotype: 009)	2	0.06	2	0.06	2	1	1	< 0.001	< 0.125

— the supplement of paper PMC11264405
